Results from publication PMC10516938, “Conformational dynamics of cohesin/Scc2 loading complex are regulated by Smc3 acetylation and ATP binding” (Nature Communications, 2023).

The chains behind the UniProt entries cited, without tags or fusion partners. Where a name states a change or a piece, a line headed by the entry shows the natural chain unless it says otherwise.
UniProt Q04002: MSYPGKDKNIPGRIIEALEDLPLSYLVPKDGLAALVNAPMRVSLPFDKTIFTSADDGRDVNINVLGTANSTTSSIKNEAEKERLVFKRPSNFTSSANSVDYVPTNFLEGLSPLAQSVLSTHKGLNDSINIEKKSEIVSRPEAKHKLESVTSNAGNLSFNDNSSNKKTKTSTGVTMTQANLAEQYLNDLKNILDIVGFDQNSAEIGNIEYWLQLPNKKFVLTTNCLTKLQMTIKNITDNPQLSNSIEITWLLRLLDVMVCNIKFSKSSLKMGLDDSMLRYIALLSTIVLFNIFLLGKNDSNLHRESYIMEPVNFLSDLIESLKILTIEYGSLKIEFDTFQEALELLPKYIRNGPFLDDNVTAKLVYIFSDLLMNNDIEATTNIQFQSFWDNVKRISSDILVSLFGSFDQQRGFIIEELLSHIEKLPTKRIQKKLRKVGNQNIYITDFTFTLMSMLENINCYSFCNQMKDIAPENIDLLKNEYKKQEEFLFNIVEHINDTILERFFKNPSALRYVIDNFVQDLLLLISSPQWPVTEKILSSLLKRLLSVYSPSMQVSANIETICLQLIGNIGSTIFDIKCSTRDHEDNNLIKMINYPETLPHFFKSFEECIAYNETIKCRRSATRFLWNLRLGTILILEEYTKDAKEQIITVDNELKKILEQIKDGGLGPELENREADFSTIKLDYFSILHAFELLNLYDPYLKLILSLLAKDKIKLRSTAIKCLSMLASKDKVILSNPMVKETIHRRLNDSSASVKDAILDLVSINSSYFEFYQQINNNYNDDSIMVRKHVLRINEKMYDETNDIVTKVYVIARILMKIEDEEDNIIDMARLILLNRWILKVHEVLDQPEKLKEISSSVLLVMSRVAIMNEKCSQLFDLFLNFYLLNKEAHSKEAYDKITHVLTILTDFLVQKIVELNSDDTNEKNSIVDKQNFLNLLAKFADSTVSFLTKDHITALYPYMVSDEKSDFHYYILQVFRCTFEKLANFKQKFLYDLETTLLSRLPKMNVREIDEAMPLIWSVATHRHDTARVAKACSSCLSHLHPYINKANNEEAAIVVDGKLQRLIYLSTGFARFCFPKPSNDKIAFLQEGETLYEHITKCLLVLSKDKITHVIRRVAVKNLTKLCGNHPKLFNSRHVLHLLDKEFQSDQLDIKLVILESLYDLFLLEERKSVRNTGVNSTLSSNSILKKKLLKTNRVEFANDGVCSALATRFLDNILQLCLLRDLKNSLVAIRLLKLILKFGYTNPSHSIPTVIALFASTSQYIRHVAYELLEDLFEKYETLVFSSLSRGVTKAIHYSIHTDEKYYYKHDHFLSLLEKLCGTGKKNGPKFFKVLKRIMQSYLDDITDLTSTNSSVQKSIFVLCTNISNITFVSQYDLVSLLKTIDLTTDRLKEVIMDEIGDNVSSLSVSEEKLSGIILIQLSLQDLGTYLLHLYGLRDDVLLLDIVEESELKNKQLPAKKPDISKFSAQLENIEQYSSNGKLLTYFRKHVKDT

Molecular target: T1, Smc3 M74C (S. cerevisiae) (UniProt P47037)
T1 sequence: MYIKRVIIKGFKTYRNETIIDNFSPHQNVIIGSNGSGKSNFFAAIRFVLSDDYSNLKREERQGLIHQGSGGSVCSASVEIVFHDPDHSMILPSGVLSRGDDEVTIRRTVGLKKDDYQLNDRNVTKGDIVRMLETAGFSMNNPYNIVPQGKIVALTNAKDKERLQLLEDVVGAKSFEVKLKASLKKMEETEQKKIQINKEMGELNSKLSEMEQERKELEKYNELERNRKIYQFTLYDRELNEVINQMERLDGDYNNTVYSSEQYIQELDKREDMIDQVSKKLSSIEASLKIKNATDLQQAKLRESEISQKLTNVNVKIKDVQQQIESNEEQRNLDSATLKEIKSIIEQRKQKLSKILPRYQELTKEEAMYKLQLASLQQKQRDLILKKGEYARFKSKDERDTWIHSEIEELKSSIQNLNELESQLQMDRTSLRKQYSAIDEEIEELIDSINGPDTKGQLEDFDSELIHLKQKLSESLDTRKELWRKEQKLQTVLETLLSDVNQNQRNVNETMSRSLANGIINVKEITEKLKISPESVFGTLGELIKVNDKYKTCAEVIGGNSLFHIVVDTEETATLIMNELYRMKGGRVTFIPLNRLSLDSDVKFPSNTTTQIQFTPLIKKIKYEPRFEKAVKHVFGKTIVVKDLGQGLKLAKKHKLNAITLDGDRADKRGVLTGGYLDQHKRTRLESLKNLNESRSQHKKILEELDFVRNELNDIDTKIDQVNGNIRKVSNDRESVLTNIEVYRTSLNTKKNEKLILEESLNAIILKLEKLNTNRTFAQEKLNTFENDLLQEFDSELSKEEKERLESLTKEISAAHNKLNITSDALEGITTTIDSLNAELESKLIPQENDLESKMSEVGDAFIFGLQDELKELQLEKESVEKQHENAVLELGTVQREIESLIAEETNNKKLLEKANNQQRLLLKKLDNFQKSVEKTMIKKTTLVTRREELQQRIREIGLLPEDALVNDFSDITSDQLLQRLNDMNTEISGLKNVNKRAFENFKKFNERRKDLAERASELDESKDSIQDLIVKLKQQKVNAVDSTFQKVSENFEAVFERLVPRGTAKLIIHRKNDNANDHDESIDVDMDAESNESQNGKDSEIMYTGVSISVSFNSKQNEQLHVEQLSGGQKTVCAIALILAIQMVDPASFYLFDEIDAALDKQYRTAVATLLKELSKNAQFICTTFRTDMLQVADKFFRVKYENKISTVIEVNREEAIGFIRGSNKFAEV
Test: cross-linking; in vivo BMOE cross-link of cysteine pairs in exponentially grown yeast cells (on ice, 6 min); Scc1-PK immunoprecipitated, western blot

Substance: Scc2 E821C (from UniProt Q04002)
- binding: binds

These are yes or no findings as the source states them, for the method shown. In cells and extracts the contact can be indirect. Binding can be weak; no strength is given.
